From paper PMC8693076
No constants are given. Whether binding was seen depends on the method and setting. In cells and extracts the contact can be indirect. These calls come from enrichment with a bait or labelling near it, and not all partners need be listed.

Protein sequences, listed by entry. Tags and fused reporters are not part of them. Lines headed by an entry give the natural chain unless they say otherwise; changes in a name come on top.
UniProt Q9GZV5: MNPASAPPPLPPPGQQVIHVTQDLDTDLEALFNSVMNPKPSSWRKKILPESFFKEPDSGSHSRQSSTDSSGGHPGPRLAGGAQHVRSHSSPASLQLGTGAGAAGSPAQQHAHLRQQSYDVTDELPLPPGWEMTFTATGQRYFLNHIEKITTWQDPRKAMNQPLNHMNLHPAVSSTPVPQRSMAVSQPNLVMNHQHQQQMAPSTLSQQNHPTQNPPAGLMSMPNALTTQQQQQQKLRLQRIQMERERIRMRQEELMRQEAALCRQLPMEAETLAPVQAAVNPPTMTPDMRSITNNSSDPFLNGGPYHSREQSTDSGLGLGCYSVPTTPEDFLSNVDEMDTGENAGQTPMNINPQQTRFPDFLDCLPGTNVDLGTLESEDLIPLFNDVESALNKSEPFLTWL

B1: AMOTL1 (protein, UniProt Q8IY63 1-956)
chain: MWRAKLRRGTCEPAVKGSPSACYSPSSPVQVLEDSTYFSPDFQLYSGRHETSALTVEATSSIREKVVEDPLCNFHSPNFLRISEVEMRGSEDAAAGTVLQRLIQEQLRYGTPTENMNLLAIQHQATGSAGPAHPTNNFSSTENLTQEDPQMVYQSARQEPQGQEHQVDNTVMEKQVRSTQPQQNNEELPTYEEAKAQSQFFRGQQQQQQQQGAVGHGYYMAGGTSQKSRTEGRPTVNRANSGQAHKDEALKELKQGHVRSLSERIMQLSLERNGAKQHLPGSGNGKGFKVGGGPSPAQPAGKVLDPRGPPPEYPFKTKQMMSPVSKTQEHGLFYGDQHPGMLHEMVKPYPAPQPVRTDVAVLRYQPPPEYGVTSRPCQLPFPSTMQQHSPMSSQTSSASGPLHSVSLPLPLPMALGAPQPPPAASPSQQLGPDAFAIVERAQQMVEILTEENRVLHQELQGYYDNADKLHKFEKELQRISEAYESLVKSTTKRESLDKAMRNKLEGEIRRLHDFNRDLRDRLETANRQLSSREYEGHEDKAAEGHYASQNKEFLKEKEKLEMELAAVRTASEDHRRHIEILDQALSNAQARVIKLEEELREKQAYVEKVEKLQQALTQLQSACEKREQMERRLRTWLERELDALRTQQKHGNGQPANMPEYNAPALLELVREKEERILALEADMTKWEQKYLEESTIRHFAMNAAATAAAERDTTIINHSRNGSYGESSLEAHIWQEEEEVVQANRRCQDMEYTIKNLHAKIIEKDAMIKVLQQRSRKDAGKTDSSSLRPARSVPSIAAATGTHSRQTSLTSSQLAEEKKEEKTWKGSIGLLLGKEHHEHASAPLLPPPPTSALSSIASTTAASSAHAKTGSKDSSTQTDKSAELFWPSMASLPSRGRLSTTPAHSPVLKHPAAKGTAEKLENSPGHGKSPDHRGRVSSLLHKPEFPDGEMMEVLI
B2: ASPP2 (protein, UniProt Q13625 1-1128)
chain: MMPMFLTVYLSNNEQHFTEVPVTPETICRDVVDLCKEPGESDCHLAEVWCGSERPVADNERMFDVLQRFGSQRNEVRFFLRHERPPGRDIVSGPRSQDPSLKRNGVKVPGEYRRKENGVNSPRMDLTLAELQEMASRQQQQIEAQQQLLATKEQRLKFLKQQDQRQQQQVAEQEKLKRLKEIAENQEAKLKKVRALKGHVEQKRLSNGKLVEEIEQMNNLFQQKQRELVLAVSKVEELTRQLEMLKNGRIDSHHDNQSAVAELDRLYKELQLRNKLNQEQNAKLQQQRECLNKRNSEVAVMDKRVNELRDRLWKKKAALQQKENLPVSSDGNLPQQAASAPSRVAAVGPYIQSSTMPRMPSRPELLVKPALPDGSLVIQASEGPMKIQTLPNMRSGAASQTKGSKIHPVGPDWSPSNADLFPSQGSASVPQSTGNALDQVDDGEVPLREKEKKVRPFSMFDAVDQSNAPPSFGTLRKNQSSEDILRDAQVANKNVAKVPPPVPTKPKQINLPYFGQTNQPPSDIKPDGSSQQLSTVVPSMGTKPKPAGQQPRVLLSPSIPSVGQDQTLSPGSKQESPPAAAVRPFTPQPSKDTLLPPFRKPQTVAASSIYSMYTQQQAPGKNFQQAVQSALTKTHTRGPHFSSVYGKPVIAAAQNQQQHPENIYSNSQGKPGSPEPETEPVSSVQENHENERIPRPLSPTKLLPFLSNPYRNQSDADLEALRKKLSNAPRPLKKRSSITEPEGPNGPNIQKLLYQRTTIAAMETISVPSYPSKSASVTASSESPVEIQNPYLHVEPEKEVVSLVPESLSPEDVGNASTENSDMPAPSPGLDYEPEGVPDNSPNLQNNPEEPNPEAPHVLDVYLEEYPPYPPPPYPSGEPEGPGEDSVSMRPPEITGQVSLPPGKRTNLRKTGSERIAHGMRVKFNPLALLLDSSLEGEFDLVQRIIYEVDDPSLPNDEGITALHNAVCAGHTEIVKFLVQFGVNVNAADSDGWTPLHCAASCNNVQVCKFLVESGAAVFAMTYSDMQTAADKCEEMEEGYTQCSQFLYGVQEKMGIMNKGVIYALWDYEPQNDDELPMKEGDCMTIIHREDEDEIEWWWARLNDKEGYVPRNLLGLYPRIKPRQRSLA
B3: Non‐POU domain‐containing octamer‐binding protein (NONO), endogenous, LN229 (protein, UniProt Q15233 1-471)
chain: MQSNKTFNLEKQNHTPRKHHQHHHQQQHHQQQQQQPPPPPIPANGQQASSQNEGLTIDLKNFRKPGEKTFTQRSRLFVGNLPPDITEEEMRKLFEKYGKAGEVFIHKDKGFGFIRLETRTLAEIAKVELDNMPLRGKQLRVRFACHSASLTVRNLPQYVSNELLEEAFSVFGQVERAVVIVDDRGRPSGKGIVEFSGKPAARKALDRCSEGSFLLTTFPRPVTVEPMDQLDDEEGLPEKLVIKNQQFHKEREQPPRFAQPGSFEYEYAMRWKALIEMEKQQQDQVDRNIKEAREKLEMEMEAARHEHQVMLMRQDLMRRQEELRRMEELHNQEVQKRKQLELRQEEERRRREEEMRRQQEEMMRRQQEGFKGTFPDAREQEIRMGQMAMGGAMGINNRGAMPPAPVPAGTPAPPGPATMMPDGTLGLTPPTTERFGQAATMEGIGAIGGTPPAFNRAAPGAEFAPNKRRRY

target: BirA^R118G‐TAZ fusion protein (UniProt Q9GZV5); experiment: proximity labelling; BioID: BirA R118G-TAZ stably expressed in LN229 cells, 0.5 µM biotin 24 h, streptavidin Dynabeads, nano LC-MS/MS; controls BirA R118G alone or vector

binding, binds:
B1, B2, B3
